For this test, the target named is Flag-tagged BAG2 (UniProt O95816). In words: co-IP; p53-null H1299 cells transfected with expression vectors, lysed in NP-40 buffer 24 h after transfection; IP with anti-p53 (DO-1) or anti-Flag; in Figures 2f and 5c cells treated with MG132 (40 uM) for 6 h.

Amino acid sequences for entries named in this document (tags omitted).
UniProt O95816: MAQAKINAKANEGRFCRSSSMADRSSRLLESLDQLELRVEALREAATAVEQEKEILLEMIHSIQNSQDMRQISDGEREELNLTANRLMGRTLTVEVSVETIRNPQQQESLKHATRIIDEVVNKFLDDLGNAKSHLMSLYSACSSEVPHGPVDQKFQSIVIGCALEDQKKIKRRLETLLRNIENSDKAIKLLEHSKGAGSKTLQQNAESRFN

No constants are given. Whether binding was seen depends on the method and setting. In cells and extracts the contact can be indirect. Sequences can lack the tags named with a protein.

B1: HA-tagged BAG5 (protein, UniProt Q9UL15 1-447)
chain: MDMGNQHPSISRLQEIQKEVKSVEQQVIGFSGLSDDKNYKKLERILTKQLFEIDSVDTEGKGDIQQARKRAAQETERLLKELEQNANHPHRIEIQNIFEEAQSLVREKIVPFYNGGNCVTDEFEEGIQDIILRLTHVKTGGKISLRKARYHTLTKICAVQEIIEDCMKKQPSLPLSEDAHPSVAKINFVMCEVNKARGVLIALLMGVNNNETCRHLSCVLSGLIADLDALDVCGRTEIRNYRREVVEDINKLLKYLDLEEEADTTKAFDLRQNHSILKIEKVLKRMREIKNELLQAQNPSELYLSSKTELQGLIGQLDEVSLEKNPCIREARRRAVIEVQTLITYIDLKEALEKRKLFACEEHPSHKAVWNVLGNLSEIQGEVLSFDGNRTDKNYIRLEELLTKQLLALDAVDPQGEEKCKAARKQAVRLAQNILSYLDLKSDEWEY
Consider B1, for which the binding result is listed as “no binding”.

The record behind these values is PMC5088412.
